No constants are given. Whether binding was seen depends on the method and setting. In cells and extracts the contact can be indirect. Binding can be weak; no strength is given. For some of these results: Sequences can lack the tags named with a protein.
B1: full length human Dsg3 tagged with the c-myc epitope (hDsg3.myc) (protein, UniProt P32926 50-999)
chain: EWVKFAKPCREGEDNSKRNPIAKITSDYQATQKITYRISGVGIDQPPFGIFVVDKNTGDINITAIVDREETPSFLITCRALNAQGLDVEKPLILTVKILDINDNPPVFSQQIFMGEIEENSASNSLVMILNATDADEPNHLNSKIAFKIVSQEPAGTPMFLLSRNTGEVRTLTNSLDREQASSYRLVVSGADKDGEGLSTQCECNIKVKDVNDNFPMFRDSQYSARIEENILSSELLRFQVTDLDEEYTDNWLAVYFFTSGNEGNWFEIQTDPRTNEGILKVVKALDYEQLQSVKLSIAVKNKAEFHQSVISRYRVQSTPVTIQVINVREGIAFRPASKTFTVQKGISSKKLVDYILGTYQAIDEDTNKAASNVKYVMGRNDGGYLMIDSKTAEIKFVKNMNRDSTFIVNKTITAEVLAIDEYTGKTSTGTVYVRVPDFNDNCPTAVLEKDAVCSSSPSVVVSARTLNNRYTGPYTFALEDQPVKLPAVWSITTLNATSALLRAQEQIPPGVYHISLVLTDSQNNRCEMPRSLTLEVCQCDNRGICGTSYPTTSPGTRYGRPHSGRLGPAAIGLLLLGLLLLLLAPLLLLTCDCGAGSTGGVTGGFIPVPDGSEGTIHQWGIEGAHPEDKEITNICVPPVTANGADFMESSEVCTNTYARGTAVEGTSGMEMTTKLGAATESGGAAGFATGTVSGAASGFGAATGVGICSSGQSGTMRTRHSTGGTNKDYADGAISMNFLDSYFSQKAFACAEEDDGQEANDCLLIYDNEGADATGSPVGSVGCCSFIADDLDDSFLDSLGPKFKKLAEISLGVDGEGKEVQPPSKDSGYGIESCGHPIEVQQTGFVKCQTLSGSQGASALSTSGSVQPAVSIPDPLQHGNYLVTETYSASGSLVQPSTAGFDPLLTQNVIVTERVICPISSVPGNLAGPTQLRGSHTMLCTEDPCSRLI
B2: plakoglobin (Pg, also known as γ-catenin) (protein, UniProt P14923 1-745)
chain: MEVMNLMEQPIKVTEWQQTYTYDSGIHSGANTCVPSVSSKGIMEEDEACGRQYTLKKTTTYTQGVPPSQGDLEYQMSTTARAKRVREAMCPGVSGEDSSLLLATQVEGQATNLQRLAEPSQLLKSAIVHLINYQDDAELATRALPELTKLLNDEDPVVVTKAAMIVNQLSKKEASRRALMGSPQLVAAVVRTMQNTSDLDTARCTTSILHNLSHHREGLLAIFKSGGIPALVRMLSSPVESVLFYAITTLHNLLLYQEGAKMAVRLADGLQKMVPLLNKNNPKFLAITTDCLQLLAYGNQESKLIILANGGPQALVQIMRNYSYEKLLWTTSRVLKVLSVCPSNKPAIVEAGGMQALGKHLTSNSPRLVQNCLWTLRNLSDVATKQEGLESVLKILVNQLSVDDVNVLTCATGTLSNLTCNNSKNKTLVTQNSGVEALIHAILRAGDKDDITEPAVCALRHLTSRHPEAEMAQNSVRLNYGIPAIVKLLNQPNQWPLVKATIGLIRNLALCPANHAPLQEAAVIPRLVQLLVKAHQDAQRHVAAGTQQPYTDGVRMEEIVEGCTGALHILARDPMNRMEIFRLNTIPLFVQLLYSSVENIQRVAAGVLCELAQDKEAADAIDAEGASAPLMELLHSRNEGTATYAAAVLFRISEDKNPDYRKRVSVELTNSLFKHDPAAWEAAQSMIPINEPYGDDMDATYRPMYSSDVPLDPLEMHMDMDGDYPIDTYSDGLRPPYPTADHMLA
B3: endogenous Desmoglein 3 (Dsg3) (protein, UniProt P32926 50-999)
chain: B1 chain

Key:
[1] = molecular target: T1, full length human Dsg3 tagged with the c-myc epitope (hDsg3.myc) (human) (UniProt P32926); assay: co-IP; RIPA lysates of A431 stable lines (empty vector control V and hDsg3.myc D3); antibodies (anti-myc, anti-Dsg3 5H10 or anti-E-cadherin HECD-1) coupled to Dynabeads, overnight at 4°C; Western blot
T1 sequence: B1 chain

[2] = molecular target: T2, endogenous Desmoglein 3 (Dsg3) (human (endogenous in A431 and HaCaT)) (UniProt P32926); assay: as above
T2 sequence: B1 chain

[3] = molecular target: E-cadherin (human (endogenous in A431 and HaCaT)); assay: as above
[4] = molecular target: E-cadherin (human (endogenous in A431 and HaCaT)); assay: co-IP; RIPA lysate of HaCaT cells (endogenous proteins); antibody coupled to Dynabeads, overnight at 4°C; Western blot
[5] = molecular target: E-cadherin (human (endogenous in A431 and HaCaT)); assay: FRET or BRET; acceptor photobleaching FRET on immunostained HaCaT cells; E-cadherin labelled with HECD-1 and Alexa Fluor 488 Fab conjugate (donor), Dsg3 with rabbit anti-Dsg3 and Alexa Fluor 555 conjugate (acceptor); regions with FRET >5% counted positive

| Molecule | binding [1] | binding [2] | binding [3] | binding [4] | binding [5] |
| --- | --- | --- | --- | --- | --- |
| E-cadherin (human (endogenous in A431 and HaCaT)) | binds | binds |  |  |  |
| B1 |  |  | binds |  |  |
| B2 |  |  | binds |  |  |
| B3 |  |  | binds | binds | binds |
